This is one part of the list.

The target of this assay is T1, OsSMF1 (Oryza sativa, UniProt Q6ZLB0 1-436).
T1 sequence: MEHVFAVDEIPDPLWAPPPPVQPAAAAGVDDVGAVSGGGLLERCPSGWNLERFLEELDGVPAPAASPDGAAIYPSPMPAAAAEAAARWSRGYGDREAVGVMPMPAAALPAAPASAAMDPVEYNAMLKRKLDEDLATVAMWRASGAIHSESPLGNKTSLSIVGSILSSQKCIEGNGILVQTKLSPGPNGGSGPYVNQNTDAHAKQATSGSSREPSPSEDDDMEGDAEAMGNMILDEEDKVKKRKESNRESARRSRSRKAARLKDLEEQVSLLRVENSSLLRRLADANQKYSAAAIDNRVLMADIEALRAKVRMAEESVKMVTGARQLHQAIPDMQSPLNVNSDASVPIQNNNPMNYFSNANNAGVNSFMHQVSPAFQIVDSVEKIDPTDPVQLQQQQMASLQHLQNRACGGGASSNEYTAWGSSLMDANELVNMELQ
Description: protein-binding microarray (RPBM); PBS, 2% BSA, 51.3 ng/ul salmon testes DNA, 50 uM zinc acetate, 200 nM TF, 25 C, 1 h; high values mean tight binding. As to conditions: protein: recombinant; tags: N-terminal polyhistidine and DsRed monomer fusion (pET32a); chain copies: 2; label: CyDye5-dUTP incorporated in the synthesized complementary strand; 3' TTTTT single-stranded linker to array surface; dsDNA, one strand shown. An outline of the steps: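 Using Ni–NTA, transcription factors fused N-terminally to polyhistidine and DsRed were purified after expression in E. coli BL21-CodonPlus. These were incubated at 200 nM with a blocked, double-stranded custom Agilent array for 1 h at 25 °C in a buffer containing 50 µM zinc acetate, and the array was washed. The binding signal is per-feature fluorescence intensity (arbitrary units) on an Axon 4000B scanner.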
Consider “CATGGCACAGCGAAAATGCCACGTGTACTCGTACTCCAGTCGGAGTCACCTAGTGCAG”, for which the binding signal was 13000 fluorescence intensity (a.u.).
For “ATGATGAAAATTCATGACAACTCAAAACCAGTATTCGTTGCGGAGTCACCTAGTGCAG”, the binding signal was 4010 fluorescence intensity (a.u.).
Turning to “AAACTACAGTGCATAGAATGTGAATTCTGAACACGTGTTTCGGAGTCACCTAGTGCAG”, the binding signal is 4890 fluorescence intensity (a.u.).
Then “GCACACGCAGCAACGCGTGTCGTTTTGTGAGTGGCAAATACGGAGTCACCTAGTGCAG”, with 3290 fluorescence intensity (a.u.).
With “CAGCGCTAACTAGCTTGTGCAACACCTGAACTGCCTCCAACGGAGTCACCTAGTGCAG”, the binding signal was 16500 fluorescence intensity (a.u.).
Then “GCTGCATCGAATGGAGCTCGTCGGAGTCATCGGTCATGTACGGAGTCACCTAGTGCAG”, with 4940 fluorescence intensity (a.u.).
Then “TGCACAGCGTGTTCCTCTCTAGTCTATGTGGACCTTTTGCCGGAGTCACCTAGTGCAG”, with 3600 fluorescence intensity (a.u.).
Then “ATCCCAACAATTTCAGACCCATGACCTATGAATTTTACTTCGGAGTCACCTAGTGCAG”, with 5260 fluorescence intensity (a.u.); and “CAACTCCGATGACGAAGACAACTACGAGGAGTACATCCCCCGGAGTCACCTAGTGCAG”, with 4980 fluorescence intensity (a.u.).
As to “TTTGCTCTGCCATGTAAGCGTCACGTCAATGCCATGTAGGCGGAGTCACCTAGTGCAG”, the binding signal is 11200 fluorescence intensity (a.u.).
Then “TCAGTTGCTCACGGCTGATTATATGCCGCAACGACTTATTCGGAGTCACCTAGTGCAG”, with 3300 fluorescence intensity (a.u.); and “TCCTCTCCTTCACTCGTACTGTTTCTGATATCATTGATTGCGGAGTCACCTAGTGCAG”, with 3790 fluorescence intensity (a.u.).
The value for “ATCACCATGGCTTTAAGAAATGACATCAGCCACCAGTAGACGGAGTCACCTAGTGCAG” was 6230 fluorescence intensity (a.u.); that for “GGGTGCTACATCTGCAGCCCTTCCGAATCATCACGTGTTCCGGAGTCACCTAGTGCAG” was 3410 fluorescence intensity (a.u.); that for “ACTAGAAGCCATCGATGTGTATCCTGCCTTGCCTGCGTGTCGGAGTCACCTAGTGCAG” was 3980 fluorescence intensity (a.u.).
The value for “TCGCTCGGCGCCGGGCGGCAGCTAGGCGTCATCGTCGCGTCGGAGTCACCTAGTGCAG” was 4260 fluorescence intensity (a.u.).
Take “CGAGCCCGTCCAGGGCCAGGTACTTTCACTCTCACCTCACCGGAGTCACCTAGTGCAG”: the binding signal was 21900 fluorescence intensity (a.u.).
Then “GAGGAGGAATGGAGGAACTGAGGAGTCACCTAGGTGTAGACGGAGTCACCTAGTGCAG”, with 3940 fluorescence intensity (a.u.); and “CAATGCCCGTCACGAATGAGTCATCTGTGACGGGCCTAGTCGGAGTCACCTAGTGCAG”, with 13400 fluorescence intensity (a.u.); and “AACGCTTTGCGGTGATCTTAAAGTCGCCAAACACCTCAATCGGAGTCACCTAGTGCAG”, with 15600 fluorescence intensity (a.u.).
Then “TCTCCAAGCCCACGAACACCCACAGCCACCGTGAGCTCGACGGAGTCACCTAGTGCAG”, with 3300 fluorescence intensity (a.u.); and “TACGCTAGTGTTGGTATATTTTAAGCGAGAATATTTGATGCGGAGTCACCTAGTGCAG”, with 17300 fluorescence intensity (a.u.).
The value for “ATCGCGACGCACCTCGCGGATCGGTGACGTGGCCTCGCCCCGGAGTCACCTAGTGCAG” was 28400 fluorescence intensity (a.u.); that for “CCAAACGTGCTCCAAACATCCACGAACTCACCTCGATTACCGGAGTCACCTAGTGCAG” was 25200 fluorescence intensity (a.u.).
Consider “GTTTCAGTAGGAAATTATGAATGCTTTCAATTCCCTGTGACGGAGTCACCTAGTGCAG”, for which the binding signal was 3270 fluorescence intensity (a.u.).
Then “TGTTCGGCGCGGGCGTCACCACTTTCCGCCTCAACATGAACGGAGTCACCTAGTGCAG”, with 3390 fluorescence intensity (a.u.); and “AGTCAAGTTTCTATATCCGGTAGACCAGCGTGGCAAAGGCCGGAGTCACCTAGTGCAG”, with 4520 fluorescence intensity (a.u.); and “AGATCGACAGGGCTTCGCCACGATAACCAGAGGCGCCCGTCGGAGTCACCTAGTGCAG”, with 3460 fluorescence intensity (a.u.).
With “GATTAGTCAAGTTGATTATGAGAGTAAAATACACTATCTACGGAGTCACCTAGTGCAG”, the binding signal was 4660 fluorescence intensity (a.u.).
The value for “GGCGTATGAACAATTAAGTGACTAGTCGTCAGTCAGGTAGCGGAGTCACCTAGTGCAG” was 4250 fluorescence intensity (a.u.); that for “GGGGTGGACGGCCGGCGTGCACGGTTCCGCTGACACAGACCGGAGTCACCTAGTGCAG” was 3340 fluorescence intensity (a.u.).
Then “GTGGAAAAGCCAAAGGCAAAGGCAAACCACGCGTCTCTCTCGGAGTCACCTAGTGCAG”, with 17400 fluorescence intensity (a.u.); and “TATGCCTTCCACTTCCACGTCAGCTTTCCCACACTGGTCTCGGAGTCACCTAGTGCAG”, with 11800 fluorescence intensity (a.u.); and “CCTTAGACTTTGTATAGTTTATAGTTATGTCACTGACACGCGGAGTCACCTAGTGCAG”, with 3740 fluorescence intensity (a.u.).
The value for “ATACATATGGTCGGCGGACTCGGAGCCTGATCTGTCAGAACGGAGTCACCTAGTGCAG” was 4420 fluorescence intensity (a.u.); that for “GTGCCCGCCCACAAAATCCCGCGTCGATTATATTCTCCATCGGAGTCACCTAGTGCAG” was 3460 fluorescence intensity (a.u.); that for “ATCACTGATCTACTCCAAATGATGGGTCATGCTAGCAGGCCGGAGTCACCTAGTGCAG” was 3670 fluorescence intensity (a.u.).
With “TAGAAAATAATGATGATGATGATGGCAATAGGTTAACAATCGGAGTCACCTAGTGCAG”, the binding signal was 3510 fluorescence intensity (a.u.).
The value for “GCTGCTGCGTGTCTGTGTGCCGCGCCACCTATGCACCTCGCGGAGTCACCTAGTGCAG” was 3670 fluorescence intensity (a.u.); that for “GTCTCATGAGTCATGGAGGCCATTACAGGTTTTCCTCTCCCGGAGTCACCTAGTGCAG” was 8080 fluorescence intensity (a.u.); that for “AAACTAAATACTACGAGGTCCCACCTCATCATAGGTATGCCGGAGTCACCTAGTGCAG” was 3460 fluorescence intensity (a.u.).
Then “GTGTACTCTTGTTTAGTTGTCAGGTCGATTTTGAGAACATCGGAGTCACCTAGTGCAG”, with 3140 fluorescence intensity (a.u.).
